Results: paper PMC11432330, “Novel Drug-like HsrA Inhibitors Exhibit Potent Narrow-Spectrum Antimicrobial Activities against Helicobacter pylori” (International Journal of Molecular Sciences, 2024)
Further values from the same series stand in other lists.

Tested on: H. pylori 26695
Assay: In vivo inhibition of HsrA: RNA-Seq transcriptomic analysis of exposed cells
Type: cell-based, Helicobacter pylori
Method: Bacterial growth from three blood agar plates of H. pylori ATCC 700392 (aka 26695) incubated for 48 h at 37 °C under microaerobic conditions was aseptically resuspended in BHI + FBS and adjusted to 10^7 CFU/mL. BHI broth cultures were incubated microaerobically at 37 °C for 24 h. […] At this time, bacterial growth was stopped by adding 1.5 mL ice-cold RNA stop solution (95% absolute ethanol, 5% acid-buffered phenol) and subsequently incubated on ice. Control samples were exposed to the same amount of DMSO instead of the inhibitor. Helicobacter cells from all samples were harvested by centrifugation (4000 rpm at 4 °C for 10 min), then the pellets were quickly frozen by immersion in liquid nitrogen and stored at −80 °C.
RNA-Seq analysis was performed by GENEWIZ (Azenta Life Sciences, Leipzig, Germany). Frozen cell pellets from two biological replicates of each treatment condition were properly submitted to GENEWIZ in dry ice. RNA-Seq libraries were prepared according to standard protocols via rRNA depletion, RNA fragmentation and random priming, reverse transcription, 5’-phosphorylation and dA-tailing of cDNAs, adaptor ligation, and PCR enrichment. Once the quality of each library was confirmed, they were sequenced on an Illumina NovaSeq 6000 (Illumina, San Diego, CA, USA) with 150-bp paired-ends. Raw sequence reads were filtered to remove possible adapter sequences and nucleotides with poor quality using Trimmomatic v.0.36 [105]. The trimmed reads were subsequently mapped to the H. pylori strain 26695 reference genome NC_000915.1 available on NCBI, by using the Bowtie2 aligner v.2.2.6 [106]. Unique gene hit counts were calculated by using featureCounts from the Subread package v.1.5.2. Only unique reads that fell within the gene regions were counted. Using DESeq2 [108], a comparison of the gene expression between the control and treated groups of samples was performed. The Wald test was used to generate p-values and log2 fold changes. Genes with an adjusted p-value < 0.05 and absolute log2 fold change >1 were considered as differentially expressed genes (DEGs) for each comparison. The RNA-Seq data generated in this study have been deposited in ArrayExpress with the accession number E-MTAB-14255.

With NC(=NOC(=O)Nc1ccc(Cl)cc1)c1csc([N+](=O)[O-])c1 [Ligand V, N′-{[(4-chloroanilino)carbonyl]}oxy-5-nitrothiophene-3-carboximidamide] the “log2 Fold Change” value (gene HP0980, exposed to lethal concentrations vs control) was 1.063, the “log2 Fold Change” value (gene HP0982, exposed to lethal concentrations of V vs control) was 0.983 and the “log2 Fold Change” value (gene HP0983, exposed to lethal concentrations vs control) was 1.170. For the same compound, the “log2 Fold Change” value (gene HP0985, exposed to lethal concentrations of V vs control) was 0.484, the “log2 Fold Change” value (gene HP0988, exposed to lethal concentrations vs control) was -0.008 and the “log2 Fold Change” value (gene HP0994, exposed to lethal concentrations vs control) was 0.127. For the same compound, the “log2 Fold Change” value (gene HP0996, exposed to lethal concentrations of V vs control) was 0.783, the “log2 Fold Change” value (gene HP0998, exposed to lethal concentrations vs control) was 0.035 and the “log2 Fold Change” value (gene HP1001, exposed to lethal concentration of V vs control) was -0.930. The “log2 Fold Change” value (gene HP1002, exposed to lethal concentrations vs control) was 0.048, the “log2 Fold Change” value (gene HP1005, exposed to lethal concentrations of V vs control) was 0.858 and the “log2 Fold Change” value (gene HP1006, exposed to lethal concentration of V vs control) was -1.067. For the same compound, the “log2 Fold Change” value (gene HP1010, exposed to lethal concentrations vs control) was 0.043, the “log2 Fold Change” value (gene HP1011, exposed to lethal concentrations of V vs control) was 0.489 and the “log2 Fold Change” value (gene HP1012, exposed to lethal concentrations vs control) was 0.131. The “log2 Fold Change” value (gene HP1015, exposed to lethal concentration of V vs control) was -0.935, the “log2 Fold Change” value (gene HP1016, exposed to lethal concentration of V vs control) was -1.409 and the “log2 Fold Change” value (gene HP1017, exposed to lethal concentrations of V vs control) was 0.976. For the same compound, the “log2 Fold Change” value (gene HP1021, exposed to lethal concentrations vs control) was -0.829, the “log2 Fold Change” value (gene HP1024, exposed to lethal concentrations vs control) was 1.415 and the “log2 Fold Change” value (gene HP1025, exposed to lethal concentrations vs control) was 1.921. The “log2 Fold Change” value (gene HP1026, exposed to lethal concentrations of V vs control) was 0.946, the “log2 Fold Change” value (gene HP1027, exposed to lethal concentrations of V vs control) was 0.742 and the “log2 Fold Change” value (gene HP1028, exposed to lethal concentrations vs control) was 1.121. The “log2 Fold Change” value (gene HP1029, exposed to lethal concentration of V vs control) was -0.912, the “log2 Fold Change” value (gene HP1034, exposed to lethal concentration of V vs control) was -1.139 and the “log2 Fold Change” value (gene HP1037, exposed to lethal concentrations of V vs control) was 0.949. For the same compound, the “log2 Fold Change” value (gene HP1038, exposed to lethal concentrations of V vs control) was 0.847, the “log2 Fold Change” value (gene HP1039, exposed to lethal concentration of V vs control) was -1.464 and the “log2 Fold Change” value (gene HP1043, exposed to lethal concentrations of V vs control) was 0.497. The “log2 Fold Change” value (gene HP1044, exposed to lethal concentrations vs control) was 1.898, the “log2 Fold Change” value (gene HP1045, exposed to lethal concentrations vs control) was 1.636 and the “log2 Fold Change” value (gene HP1049, exposed to lethal concentrations of V vs control) was 0.786. The “log2 Fold Change” value (gene HP1050, exposed to lethal concentrations vs control) was 1.086, the “log2 Fold Change” value (gene HP1051, exposed to lethal concentrations vs control) was -0.081 and the “log2 Fold Change” value (gene HP1054, exposed to lethal concentrations vs control) was -0.047. For the same compound, the “log2 Fold Change” value (gene HP1055, exposed to lethal concentrations of V vs control) was 0.866, the “log2 Fold Change” value (gene HP1056, exposed to lethal concentrations of V vs control) was 0.674 and the “log2 Fold Change” value (gene HP1060, exposed to lethal concentrations of V vs control) was 0.850. The “log2 Fold Change” value (gene HP1061, exposed to lethal concentrations vs control) was -0.067, the “log2 Fold Change” value (gene HP1064, exposed to lethal concentration of V vs control) was -3.063 and the “log2 Fold Change” value (gene HP1065, exposed to lethal concentration of V vs control) was -1.866. The “log2 Fold Change” value (gene HP1066, exposed to lethal concentrations vs control) was 1.053, the “log2 Fold Change” value (gene HP1069, exposed to lethal concentrations vs control) was 1.913 and the “log2 Fold Change” value (gene HP1070, exposed to lethal concentrations vs control) was 1.174. The “log2 Fold Change” value (gene HP1072, exposed to lethal concentration of V vs control) was -1.096, the “log2 Fold Change” value (gene HP1073, exposed to lethal concentration of V vs control) was -1.360 and the “log2 Fold Change” value (gene HP1074, exposed to lethal concentration of V vs control) was -1.064. The “log2 Fold Change” value (gene HP1076, exposed to lethal concentration of V vs control) was -2.055, the “log2 Fold Change” value (gene HP1079, exposed to lethal concentrations vs control) was -0.624 and the “log2 Fold Change” value (gene HP1082, exposed to lethal concentrations vs control) was -0.648. For the same compound, the “log2 Fold Change” value (gene HP1086, exposed to lethal concentrations vs control) was 1.049, the “log2 Fold Change” value (gene HP1089, exposed to lethal concentrations vs control) was -0.050 and the “log2 Fold Change” value (gene HP1092, exposed to lethal concentration of V vs control) was -0.875. For the same compound, the “log2 Fold Change” value (gene HP1097, exposed to lethal concentrations of V vs control) was 0.502, the “log2 Fold Change” value (gene HP1099, exposed to lethal concentrations vs control) was 1.898 and the “log2 Fold Change” value (gene HP1100, exposed to lethal concentrations vs control) was 2.027. The “log2 Fold Change” value (gene HP1101, exposed to lethal concentrations vs control) was 1.496, the “log2 Fold Change” value (gene HP1104, exposed to lethal concentrations vs control) was 1.081 and the “log2 Fold Change” value (gene HP1105, exposed to lethal concentrations of V vs control) was 0.551. The “log2 Fold Change” value (gene HP1107, exposed to lethal concentrations of V vs control) was 0.800, the “log2 Fold Change” value (gene HP1111, exposed to lethal concentrations of V vs control) was 0.677 and the “log2 Fold Change” value (gene HP1114, exposed to lethal concentrations vs control) was 1.030. For the same compound, the “log2 Fold Change” value (gene HP1116, exposed to lethal concentrations vs control) was 2.599, the “log2 Fold Change” value (gene HP1117, exposed to lethal concentrations vs control) was -0.127 and the “log2 Fold Change” value (gene HP1118, exposed to lethal concentrations of V vs control) was 0.908. The “log2 Fold Change” value (gene HP1122a, exposed to lethal concentration of V vs control) was -1.391, the “log2 Fold Change” value (gene HP1123, exposed to lethal concentration of V vs control) was -1.061 and the “log2 Fold Change” value (gene HP1124, exposed to lethal concentrations vs control) was -0.120. For the same compound, the “log2 Fold Change” value (gene HP1129, exposed to lethal concentrations vs control) was 0.018, the “log2 Fold Change” value (gene HP1130, exposed to lethal concentrations vs control) was -0.120 and the “log2 Fold Change” value (gene HP1133, exposed to lethal concentrations vs control) was -0.046. For the same compound, the “log2 Fold Change” value (gene HP1134, exposed to lethal concentrations vs control) was -0.124, the “log2 Fold Change” value (gene HP1135, exposed to lethal concentration of V vs control) was -1.160 and the “log2 Fold Change” value (gene HP1136, exposed to lethal concentration of V vs control) was -1.023. For the same compound, the “log2 Fold Change” value (gene HP1137, exposed to lethal concentration of V vs control) was -1.280, the “log2 Fold Change” value (gene HP1138, exposed to lethal concentrations vs control) was -0.008 and the “log2 Fold Change” value (gene HP1143, exposed to lethal concentrations vs control) was 1.282. The “log2 Fold Change” value (gene HP1150, exposed to lethal concentration of V vs control) was -1.699, the “log2 Fold Change” value (gene HP1152, exposed to lethal concentrations of V vs control) was 0.544 and the “log2 Fold Change” value (gene HP1156, exposed to lethal concentrations of V vs control) was 0.792. For the same compound, the “log2 Fold Change” value (gene HP1160, exposed to lethal concentration of V vs control) was -1.357, the “log2 Fold Change” value (gene HP1161, exposed to lethal concentration of V vs control) was -0.885 and the “log2 Fold Change” value (gene HP1162, exposed to lethal concentrations of V vs control) was 0.885. For the same compound, the “log2 Fold Change” value (gene HP1163, exposed to lethal concentrations vs control) was 0.00232, the “log2 Fold Change” value (gene HP1167, exposed to lethal concentrations vs control) was 3.244 and the “log2 Fold Change” value (gene HP1168, exposed to lethal concentrations vs control) was 1.208. For the same compound, the “log2 Fold Change” value (gene HP1169, exposed to lethal concentrations vs control) was -0.099, the “log2 Fold Change” value (gene HP1170, exposed to lethal concentrations vs control) was 0.075 and the “log2 Fold Change” value (gene HP1172, exposed to lethal concentrations vs control) was -0.779. The “log2 Fold Change” value (gene HP1173, exposed to lethal concentration of V vs control) was -1.612, the “log2 Fold Change” value (gene HP1174, exposed to lethal concentrations vs control) was 2.040 and the “log2 Fold Change” value (gene HP1175, exposed to lethal concentrations vs control) was -0.059. The “log2 Fold Change” value (gene HP1177, exposed to lethal concentrations vs control) was -0.050, the “log2 Fold Change” value (gene HP1178, exposed to lethal concentrations vs control) was 1.251 and the “log2 Fold Change” value (gene HP1179, exposed to lethal concentrations of V vs control) was 0.862. For the same compound, the “log2 Fold Change” value (gene HP1180, exposed to lethal concentrations vs control) was 1.264, the “log2 Fold Change” value (gene HP1182, exposed to lethal concentrations vs control) was -0.090 and the “log2 Fold Change” value (gene HP1185, exposed to lethal concentrations vs control) was -0.823. For the same compound, the “log2 Fold Change” value (gene HP1186, exposed to lethal concentrations vs control) was 1.025, the “log2 Fold Change” value (gene HP1187, exposed to lethal concentrations vs control) was -0.125 and the “log2 Fold Change” value (gene HP1189, exposed to lethal concentrations of V vs control) was 0.643. The “log2 Fold Change” value (gene HP1192, exposed to lethal concentrations of V vs control) was 0.493, the “log2 Fold Change” value (gene HP1198, exposed to lethal concentrations vs control) was 1.009 and the “log2 Fold Change” value (gene HP1198a, exposed to lethal concentration of V vs control) was -1.810. The “log2 Fold Change” value (gene HP1206, exposed to lethal concentrations of V vs control) was 0.561, the “log2 Fold Change” value (gene HP1207, exposed to lethal concentrations vs control) was 1.215 and the “log2 Fold Change” value (gene HP1208, exposed to lethal concentrations vs control) was 1.199. The “log2 Fold Change” value (gene HP1210, exposed to lethal concentrations vs control) was 1.562, the “log2 Fold Change” value (gene HP1212, exposed to lethal concentrations vs control) was 0.011 and the “log2 Fold Change” value (gene HP1218a, exposed to lethal concentrations vs control) was 2.569. The “log2 Fold Change” value (gene HP1220, exposed to lethal concentrations of V vs control) was 0.577, the “log2 Fold Change” value (gene HP1223, exposed to lethal concentrations vs control) was -0.862 and the “log2 Fold Change” value (gene HP1227, exposed to lethal concentration of V vs control) was -1.052. The “log2 Fold Change” value (gene HP1228, exposed to lethal concentration of V vs control) was -0.931, the “log2 Fold Change” value (gene HP1231, exposed to lethal concentration of V vs control) was -1.565 and the “log2 Fold Change” value (gene HP1233, exposed to lethal concentrations vs control) was 1.163. For the same compound, the “log2 Fold Change” value (gene HP1237, exposed to lethal concentrations of V vs control) was 0.945 and the “log2 Fold Change” value (gene HP1242, exposed to lethal concentrations vs control) was 0.054.
